Assay results taken from article PMC3033906.
Results are given in words; binding and its absence hold for the method and conditions named. In cells and extracts the contact can be indirect. Some binding calls cover weakened binding; strength is not graded here.

Amino acid sequences for entries named in this document (tags omitted).
UniProt Q8C863: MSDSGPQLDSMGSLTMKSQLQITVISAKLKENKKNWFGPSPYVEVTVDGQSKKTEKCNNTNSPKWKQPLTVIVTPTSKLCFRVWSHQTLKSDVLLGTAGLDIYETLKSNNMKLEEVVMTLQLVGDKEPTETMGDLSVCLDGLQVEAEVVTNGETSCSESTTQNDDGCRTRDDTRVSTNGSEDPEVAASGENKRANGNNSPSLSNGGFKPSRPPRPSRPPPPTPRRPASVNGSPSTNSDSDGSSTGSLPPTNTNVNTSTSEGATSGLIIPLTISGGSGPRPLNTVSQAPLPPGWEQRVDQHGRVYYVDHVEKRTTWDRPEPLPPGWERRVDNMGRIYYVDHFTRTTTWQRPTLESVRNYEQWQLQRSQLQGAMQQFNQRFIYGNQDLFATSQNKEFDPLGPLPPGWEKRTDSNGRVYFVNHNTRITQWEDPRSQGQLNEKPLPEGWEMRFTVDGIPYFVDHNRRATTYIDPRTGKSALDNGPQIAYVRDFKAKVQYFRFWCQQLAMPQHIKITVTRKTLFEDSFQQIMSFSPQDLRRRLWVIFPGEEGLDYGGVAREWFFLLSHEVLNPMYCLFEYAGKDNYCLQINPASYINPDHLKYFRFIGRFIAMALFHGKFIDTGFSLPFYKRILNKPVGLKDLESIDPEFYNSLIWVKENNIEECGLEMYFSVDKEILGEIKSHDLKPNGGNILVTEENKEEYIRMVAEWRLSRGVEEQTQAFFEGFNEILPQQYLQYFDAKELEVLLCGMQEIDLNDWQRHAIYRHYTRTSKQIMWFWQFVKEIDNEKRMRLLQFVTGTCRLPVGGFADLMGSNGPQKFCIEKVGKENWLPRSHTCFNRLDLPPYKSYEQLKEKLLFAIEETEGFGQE
UniProt Q9JLJ0: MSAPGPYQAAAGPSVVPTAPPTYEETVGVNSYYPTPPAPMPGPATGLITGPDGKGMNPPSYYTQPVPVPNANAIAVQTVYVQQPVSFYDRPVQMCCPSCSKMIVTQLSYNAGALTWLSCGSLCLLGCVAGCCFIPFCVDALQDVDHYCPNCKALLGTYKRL

Key:
rLuc-Itch = rLuc-Itch (UniProt Q8C863); assay: FRET or BRET; BRET in living HEK-293T cells co-transfected with a constant amount of rLuc-Itch and various amounts of GFP fusion; coelenterazine 5 µM; saturation curves
GST-Itch WT = GST-Itch WT (UniProt Q8C863); assay: pull-down; 20 µg GST-fusion protein on glutathione Sepharose 4B incubated with extracts of transfected HEK-293T cells, 16 hours at 4°C, 20 mM Hepes pH 7.4, 150 mM NaCl, 1% Triton X-100; blot with anti-myc or anti-GFP; densitometry of four experiments for GST-Itch-WW; only the target purified
FLAG-Itch (WT) = FLAG-Itch (WT) (UniProt Q8C863); assay: co-IP; HEK-293T co-transfected; extract in 20 mM Hepes pH 7.4, 150 mM NaCl, 1% Triton X-100; anti-FLAG with protein A-Sepharose, 16 hours at 4°C; blot with anti-myc
GFP-Itch = GFP-Itch (UniProt Q8C863); assay: FRET or BRET; BRET with rLuc-LITAF and GFP-Itch; data not shown

GFP-LITAF WT (from UniProt Q9JLJ0 1-161)
binding (rLuc-Itch): binds

myc-LITAF (wild-type) (from UniProt Q9JLJ0 1-161)
binding (GST-Itch WT): binds | binding (FLAG-Itch (WT)): binds

rLuc-LITAF (from UniProt Q9JLJ0 1-161)
binding (GFP-Itch): binds
